Measured values taken from PMC5567221, “The open architecture of HD-PTP phosphatase provides new insights into the mechanism of regulation of ESCRT function” (Scientific Reports, 2017).
These are yes or no findings as the source states them, for the method shown.

What was measured:
[1] = biological target: HD-PTP coiled-coil domain (residues 362-704) (UniProt Q9H3S7); assay: AUC; sedimentation velocity on protein fractions from MALS; 50,000 rpm, 20 °C, 280 nm; Sedfit; both purified
[2] = biological target: HD-PTP coiled-coil domain (residues 362-704) (UniProt Q9H3S7); assay: SEC-MALS; Superdex-200 10/300 GL; 20 mM Tris-Cl pH 8.0, 100 mM NaCl, 1 mM TCEP (HD-PTPCC and HD-PTP Bro1-CC) or 20 mM HEPES pH 7.4, 250 mM NaCl, 2 mM EDTA (HD-PTP Bro1-CC-PRR); both purified
[3] = biological target: HD-PTP Bro1-CC (residues 1-714) (UniProt Q9H3S7); assay: AUC; sedimentation velocity on protein fractions from MALS; 50,000 rpm, 20 °C, 280 nm; Sedfit; both purified
[4] = biological target: HD-PTP Bro1-CC (residues 1-714) (UniProt Q9H3S7); assay: SEC-MALS; Superdex-200 10/300 GL; 20 mM Tris-Cl pH 8.0, 100 mM NaCl, 1 mM TCEP (HD-PTPCC and HD-PTP Bro1-CC) or 20 mM HEPES pH 7.4, 250 mM NaCl, 2 mM EDTA (HD-PTP Bro1-CC-PRR); both purified
[5] = biological target: HD-PTP Bro1-CC-PRR (residues 1-738) (UniProt Q9H3S7); assay: AUC; sedimentation velocity on protein fractions from MALS; 50,000 rpm, 20 °C, 280 nm; Sedfit; both purified
[6] = biological target: HD-PTP Bro1-CC-PRR (residues 1-738) (UniProt Q9H3S7); assay: SEC-MALS; Superdex-200 10/300 GL; 20 mM Tris-Cl pH 8.0, 100 mM NaCl, 1 mM TCEP (HD-PTPCC and HD-PTP Bro1-CC) or 20 mM HEPES pH 7.4, 250 mM NaCl, 2 mM EDTA (HD-PTP Bro1-CC-PRR); both purified

B1: HD-PTP coiled-coil domain (residues 362-704) (domain or fragment, UniProt Q9H3S7 362-704)
chain: PMAAHEASSLYSEEKAKLLREMMAKIEDKNEVLDQFMDSMQLDPETVDNLDAYSHIPPQLMEKCAALSVRPDTVRNLVQSMQVLSGVFTDVEASLKDIRDLLEEDELLEQKFQEAVGQAGAISITSKAELAEVRREWAKYMEVHEKASFTNSELHRAMNLHVGNLRLLSGPLDQVRAALPTPALSPEDKAVLQNLKRILAKVQEMRDQRVSLEQQLRELIQKDDITASLVTTDHSEMKKLFEEQLKKYDQLKVYLEQNLAAQDRVLCALTEANVQYAAVRRVLSDLDQKWNSTLQTLVASYEAYEDLMKKSQEGRDFYADLESKVAALLERTQSTCQAREAAR
**Q.** What does the source list for B1?
**A.** binding [1]: no binding; binding [2]: no binding

B2: HD-PTP Bro1-CC (residues 1-714) (domain or fragment, UniProt Q9H3S7 1-714)
chain: MEAVPRMPMIWLDLKEAGDFHFQPAVKKFVLKNYGENPEAYNEELKKLELLRQNAVRVPRDFEGCSVLRKYLGQLHYLQSRVPMGSGQEAAVPVTWTEIFSGKSVAHEDIKYEQACILYNLGALHSMLGAMDKRVSEEGMKVSCTHFQCAAGAFAYLREHFPQAYSVDMSRQILTLNVNLMLGQAQECLLEKSMLDNRKSFLVARISAQVVDYYKEACRALENPDTASLLGRIQKDWKKLVQMKIYYFAAVAHLHMGKQAEEQQKFGERVAYFQSALDKLNEAIKLAKGQPDTVQDALRFTMDVIGGKYNSAKKDNDFIYHEAVPALDTLQPVKGAPLVKPLPVNPTDPAVTGPDIFAKLVPMAAHEASSLYSEEKAKLLREMMAKIEDKNEVLDQFMDSMQLDPETVDNLDAYSHIPPQLMEKCAALSVRPDTVRNLVQSMQVLSGVFTDVEASLKDIRDLLEEDELLEQKFQEAVGQAGAISITSKAELAEVRREWAKYMEVHEKASFTNSELHRAMNLHVGNLRLLSGPLDQVRAALPTPALSPEDKAVLQNLKRILAKVQEMRDQRVSLEQQLRELIQKDDITASLVTTDHSEMKKLFEEQLKKYDQLKVYLEQNLAAQDRVLCALTEANVQYAAVRRVLSDLDQKWNSTLQTLVASYEAYEDLMKKSQEGRDFYADLESKVAALLERTQSTCQAREAARQQLLDRELKK
**Q.** With B2 as the binder, how does the binding [3] read?
**A.** no binding

**Q.** And the binding [4]?
**A.** no binding

B3: HD-PTP Bro1-CC-PRR (residues 1-738) (domain or fragment, UniProt Q9H3S7 1-738)
chain: MEAVPRMPMIWLDLKEAGDFHFQPAVKKFVLKNYGENPEAYNEELKKLELLRQNAVRVPRDFEGCSVLRKYLGQLHYLQSRVPMGSGQEAAVPVTWTEIFSGKSVAHEDIKYEQACILYNLGALHSMLGAMDKRVSEEGMKVSCTHFQCAAGAFAYLREHFPQAYSVDMSRQILTLNVNLMLGQAQECLLEKSMLDNRKSFLVARISAQVVDYYKEACRALENPDTASLLGRIQKDWKKLVQMKIYYFAAVAHLHMGKQAEEQQKFGERVAYFQSALDKLNEAIKLAKGQPDTVQDALRFTMDVIGGKYNSAKKDNDFIYHEAVPALDTLQPVKGAPLVKPLPVNPTDPAVTGPDIFAKLVPMAAHEASSLYSEEKAKLLREMMAKIEDKNEVLDQFMDSMQLDPETVDNLDAYSHIPPQLMEKCAALSVRPDTVRNLVQSMQVLSGVFTDVEASLKDIRDLLEEDELLEQKFQEAVGQAGAISITSKAELAEVRREWAKYMEVHEKASFTNSELHRAMNLHVGNLRLLSGPLDQVRAALPTPALSPEDKAVLQNLKRILAKVQEMRDQRVSLEQQLRELIQKDDITASLVTTDHSEMKKLFEEQLKKYDQLKVYLEQNLAAQDRVLCALTEANVQYAAVRRVLSDLDQKWNSTLQTLVASYEAYEDLMKKSQEGRDFYADLESKVAALLERTQSTCQAREAARQQLLDRELKKKPPPRPTAPKPLLPRREESEAVEA
**Q.** How did the binding [5] turn out when B3 was run?
**A.** no binding

**Q.** And the binding [6]?
**A.** no binding
